In US20100105882A1:
Results are given in words; binding and its absence hold for the method and conditions named. Some results given as binding are weak or reduced against the parent protein; the word gives no strength. Where a sequence is shown, tags or fusion partners need not be part of it. Blank lines part the entries; values can stand above or below the binder they belong to.

Biological target: streptavidin HRP (UniProt P22629)
Test: blot of SDS-PAGE-separated spacer modules on PVDF membrane, probed with streptavidin HRP

binding: binds
B1: spacer module DsRed-short (short type mutated dynein stalk antiparallel coiled coil, DsRed with histidine tag and biotin acceptor peptide) (protein)
chain: VDQLKIKVEQLKEKVNELELENDELKAKVDNLNSKNRELDVKNEQANQKLKQLVQDVQAAEIKVKDASELQVQLDVRNKEIAVQKVKAHADLEKAEPAIIEGSGDNTEDVIKEFMQFKVRMEGSVNGHYFEIEGEGEGKPYEGTQTAKLQVTKGGPLPFAWDILSPQFQYGSKAYVKHPADIPDYMKLSFPEGFTWERSMNFEDGGVVEVQQDSSLQDGTFIYKVKFKGVNFPADGPVMQKKTAGWEPSTEKLYPQDGVLKGEISHALKLKDGSGHHHHHHHHGSGAGTPVTAPLAGTIWKVLASEGQTVAAGEVLLILEAMKMETEIRAAQAGTVRGIAVKAGDAVAVGDTLMTLAGSGSHYTCDFKTVYKAKKPVQLPGNHYVDSKLDITNHNEDYTVVEQYEHAEARHSGSQSGSEILDRIKPLREEVEQLENAANELKLKQDEIVATITALEKSIASLKEEVATLIRETEQIKTESSKVKAQVQALEIEVKDNKTKVVQLEVEVAQLESEVKDLE
modifications: biotinylated (biotin acceptor peptide; residue not stated)

binding: binds
B2: spacer module DsRed-long (long type mutated dynein stalk antiparallel coiled coil, DsRed with histidine tag and biotin acceptor peptide) (protein)
chain: VDQLKIKVEQLKEKVNELELENDELKAKVDNLNSKNRELDVKNEQANQKLKQLVQDVQAVRIKSQELEVKNAAANDKLKKMVKDQQEAEKKKVMSQEIQEQLHKQQEVIADKQMSVKEDLDKAEIKVKDASELQVQLDVRNKEIAVQKVKAHADLEKAEPAIIEGSGDNTEDVIKEFMQFKVRMEGSVNGHYFEIEGEGEGKPYEGTQTAKLQVTKGGPLPFAWDILSPQFQYGSKAYVKHPADIPDYMKLSFPEGFTWERSMNFEDGGVVEVQQDSSLQDGTFIYKVKFKGVNFPADGPVMQKKTAGWEPSTEKLYPQDGVLKGEISHALKLKDGSGHHHHHHHHGSGAGTPVTAPLAGTIWKVLASEGQTVAAGEVLLILEAMKMETEIRAAQAGTVRGIAVKAGDAVAVGDTLMTLAGSGSHYTCDFKTVYKAKKPVQLPGNHYVDSKLDITNHNEDYTVVEQYEHAEARHSGSQSGSEILDRIKPLREEVEQLENAANELKLKQDEIVATITALEKSIASLRNELQKLEDDAKDNQQKANEVEQMIRDLEASIARYKEEYAVLISEAQAIKADLAAVEAKVKSLKEEVATLIRETEQIKTESSKVKAQVQALEIEVKDNKTKVVQLEVEVAQLESEVKDLE
modifications: biotinylated (biotin acceptor peptide; residue not stated)
